Results as given in article PMC9203792.
These are yes or no findings as the source states them, for the method shown. In cells and extracts the contact can be indirect.

Each substance was assayed against T1, MFN1, ectopically expressed (UniProt Q8IWA4) (assay: co-IP; HEK293T cells transfected with tagged constructs; mild lysis buffer (100 mM NaCl, 1% NP40, 10 mM Tris pH 7.5, 10 mM EDTA), antibody 2 h at 4 °C, protein G-Sepharose; western blotting).
T1 sequence: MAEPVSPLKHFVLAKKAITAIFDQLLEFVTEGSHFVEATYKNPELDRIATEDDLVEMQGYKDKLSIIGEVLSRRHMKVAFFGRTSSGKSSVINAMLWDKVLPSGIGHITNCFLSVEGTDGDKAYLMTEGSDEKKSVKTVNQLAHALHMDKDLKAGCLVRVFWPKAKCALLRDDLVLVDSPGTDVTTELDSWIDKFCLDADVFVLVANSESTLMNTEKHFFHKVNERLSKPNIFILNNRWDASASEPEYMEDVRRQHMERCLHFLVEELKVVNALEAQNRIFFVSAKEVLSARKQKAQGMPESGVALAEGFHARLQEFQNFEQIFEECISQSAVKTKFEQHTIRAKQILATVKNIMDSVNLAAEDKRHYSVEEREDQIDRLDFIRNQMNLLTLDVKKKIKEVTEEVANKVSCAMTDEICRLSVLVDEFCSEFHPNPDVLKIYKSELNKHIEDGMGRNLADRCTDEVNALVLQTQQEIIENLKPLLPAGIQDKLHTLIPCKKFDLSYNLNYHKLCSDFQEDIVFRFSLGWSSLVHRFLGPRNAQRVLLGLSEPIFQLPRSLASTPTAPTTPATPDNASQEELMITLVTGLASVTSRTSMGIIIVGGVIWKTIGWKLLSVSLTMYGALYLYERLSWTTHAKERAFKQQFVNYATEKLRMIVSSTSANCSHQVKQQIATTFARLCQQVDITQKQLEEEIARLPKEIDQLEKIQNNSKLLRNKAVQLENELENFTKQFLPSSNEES

binding, no binding:
FUNDC2 TM regions alone (domain or fragment), FUNDC2 C-terminal region alone (domain or fragment), FUNDC2 N-terminal region alone (domain or fragment)
